# Source: patent US20050227352
# By UniProt entry, the sequences of proteins in these tests, tags left out. Residues count along the entry.
# UniProt P42003, 1-260: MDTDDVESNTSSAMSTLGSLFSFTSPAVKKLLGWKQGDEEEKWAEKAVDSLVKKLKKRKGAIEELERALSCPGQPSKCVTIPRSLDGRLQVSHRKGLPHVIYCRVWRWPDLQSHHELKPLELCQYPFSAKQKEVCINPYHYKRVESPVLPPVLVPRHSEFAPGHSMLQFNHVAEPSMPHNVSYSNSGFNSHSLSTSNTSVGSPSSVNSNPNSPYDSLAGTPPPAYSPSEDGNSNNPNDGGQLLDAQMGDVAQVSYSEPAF
# UniProt P08515, whole entry: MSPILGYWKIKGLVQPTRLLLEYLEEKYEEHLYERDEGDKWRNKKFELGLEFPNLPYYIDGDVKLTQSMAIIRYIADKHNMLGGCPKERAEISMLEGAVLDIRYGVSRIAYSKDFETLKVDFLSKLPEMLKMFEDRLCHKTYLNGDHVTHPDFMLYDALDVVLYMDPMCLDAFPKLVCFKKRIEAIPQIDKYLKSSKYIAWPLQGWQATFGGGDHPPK
# Construct, isoform or probe ends are uncertain for at least one entry. For part of these data: A negative result means that nothing was seen under these conditions. For part of these data: Weaker means in comparison with the reference protein, sequence or condition of that experiment. For part of these data: Protein sequences can lack the tags named with them.
# Assays:
# [1] = target: GST-N-Mad (Mothers against dpp, N-terminal DNA binding domain and linker region) (Drosophila melanogaster) (UniProt P42003); test: competition with a labelled probe; conditions: purified recombinant protein, protein details: GST, variant of bam silencer probe (A+B)
# [2] = target: T1, GST-Med (Medea, full length) (Drosophila melanogaster) (UniProt O62609); test: competition with a labelled probe; conditions: purified recombinant protein, protein details: GST (pGEX-4T2), variant of bam silencer probe (A+B)
# T1 sequence (looked up): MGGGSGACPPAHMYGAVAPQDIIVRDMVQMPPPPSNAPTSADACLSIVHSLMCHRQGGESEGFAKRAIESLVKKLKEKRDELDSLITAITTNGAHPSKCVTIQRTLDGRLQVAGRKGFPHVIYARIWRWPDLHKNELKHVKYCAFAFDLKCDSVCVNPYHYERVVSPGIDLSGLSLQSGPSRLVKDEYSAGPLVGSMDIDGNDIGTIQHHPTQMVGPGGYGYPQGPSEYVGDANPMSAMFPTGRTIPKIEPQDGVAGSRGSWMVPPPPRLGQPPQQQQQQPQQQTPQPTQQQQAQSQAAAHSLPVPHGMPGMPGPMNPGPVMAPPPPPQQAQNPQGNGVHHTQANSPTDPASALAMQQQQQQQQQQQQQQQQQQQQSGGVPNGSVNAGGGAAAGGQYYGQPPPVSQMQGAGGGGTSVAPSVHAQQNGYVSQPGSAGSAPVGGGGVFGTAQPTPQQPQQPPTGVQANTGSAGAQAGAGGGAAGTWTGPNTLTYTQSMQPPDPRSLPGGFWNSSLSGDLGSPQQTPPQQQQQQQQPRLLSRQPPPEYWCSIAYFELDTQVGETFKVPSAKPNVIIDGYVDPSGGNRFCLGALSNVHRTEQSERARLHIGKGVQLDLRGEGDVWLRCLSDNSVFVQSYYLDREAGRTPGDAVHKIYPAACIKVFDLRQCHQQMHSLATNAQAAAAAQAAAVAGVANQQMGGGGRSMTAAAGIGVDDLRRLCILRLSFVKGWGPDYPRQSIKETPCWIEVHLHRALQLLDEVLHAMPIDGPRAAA
# [3] = target: GST-N-Mad (Mothers against dpp, N-terminal DNA binding domain and linker region) (Drosophila melanogaster) (UniProt P42003); test: EMSA; conditions: lower affinity than Med; 5% native gel, 0.5x TBE, 4 C; purified recombinant protein; protein details: GST; label: Cy5 5'
# [4] = target: T1, GST-Med (Medea, full length) (Drosophila melanogaster); test: EMSA; conditions: higher affinity than Mad; double shift perhaps from degraded protein; purified recombinant protein; protein details: GST (pGEX-4T2); label: Cy5 5'
# GST = GST (UniProt P08515); test: EMSA; conditions: GST negative control; purified recombinant protein; protein details: GST alone (pGEX, Amersham Pharmacia); label: Cy5 5'
# [5] = 100-fold excess, almost completely competes
sequence,measurement,setting,value
CTCCTGAATTCGCAGACAGCGTGGCGTCAGCGATTTCA (double strand) [competitor A+B],binding result,[1]; 100-fold excess unlabeled competes Mad binding,binds
same,binding result,[2]; 100-fold excess unlabeled competes Med binding,binds
CTCCTGAATTCGCAGACAGCGAGCGATTTCA (double strand) [competitor A (site A only)],binding result,[1]; [5],binds
same,binding result,"[2]; 100-fold excess, effective competitor",binds
CTCCTGAATTCGCAGACAGCGTGGCGTCAGCGATTTCA (double strand) [bam silencer probe (A+B)],binding result,[3],binds
same,binding result,[4],binds
same,binding result,GST,no binding
CTCCTGAATTTGGCGTCAGCGATTTCA (double strand) [competitor B (site B only)],binding result,[1]; [5],binds
same,binding result,"[2]; 100-fold excess, competes to much less extent than site A",binds more weakly
